{"source": "PubChem BioAssay AID1259425 (University of Nebraska Medical Center, 2018)", "test": "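Compare each knockdown with KSR1 silencing using changes in marker transcripts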 (primary screen)", "system": "HCT116 human colon cancer cells", "reagent": "siRNA pool against human genes, 50 nM siRNA", "measured": "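mRNA of six signature genes measured together by branched-DNA assay after 50 nM siRNA pool, blank removed, divided by geometric mean of two housekeeping genes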", "direction": "BNIP3L mRNA: higher = more BNIP3L transcript after knockdown; NDRG1 mRNA: higher = more NDRG1 transcript after knockdown", "note": "Here is a random part of about 14,000 reagents tested. Further read-outs or replicates are left out here. The record does not give: the time to read-out."}
{"gene knocked down": "PIP5KL1", "BNIP3L mRNA, set 1": 0.177, "NDRG1 mRNA, set 1": 0.134}
{"gene knocked down": "GPN2", "BNIP3L mRNA, set 1": 0.186, "NDRG1 mRNA, set 1": 0.179}
{"gene knocked down": "UBL7", "BNIP3L mRNA, set 1": 0.0906, "NDRG1 mRNA, set 1": 0.232}
{"gene knocked down": "ASIC1", "BNIP3L mRNA, set 1": 0.117, "NDRG1 mRNA, set 1": 0.367}
{"gene knocked down": "TRMT9B", "BNIP3L mRNA, set 1": 0.0385, "NDRG1 mRNA, set 1": 0.327}
{"gene knocked down": "GMIP", "BNIP3L mRNA, set 1": 0.121, "NDRG1 mRNA, set 1": 0.134}
{"gene knocked down": "CPA6", "BNIP3L mRNA, set 1": 0.0659, "NDRG1 mRNA, set 1": 0.229}
{"gene knocked down": "SPSB1", "BNIP3L mRNA, set 1": 0.178, "NDRG1 mRNA, set 1": 0.592}
{"gene knocked down": "FBXO46", "BNIP3L mRNA, set 1": 0.105, "NDRG1 mRNA, set 1": 0.192}
{"gene knocked down": "GCA", "BNIP3L mRNA, set 1": 0.202, "NDRG1 mRNA, set 1": 0.187}
{"gene knocked down": "WNT7A", "BNIP3L mRNA, set 1": 0.136, "NDRG1 mRNA, set 1": 0.197}
{"gene knocked down": "SOX13", "BNIP3L mRNA, set 1": 0.0941, "NDRG1 mRNA, set 1": 0.507}
{"gene knocked down": "IRF5", "BNIP3L mRNA, set 1": 0.134, "NDRG1 mRNA, set 1": 0.0982}
{"gene knocked down": "NR2F1", "BNIP3L mRNA, set 1": 0.0946, "NDRG1 mRNA, set 1": 0.209}
{"gene knocked down": "FNDC8", "BNIP3L mRNA, set 1": 0.14, "NDRG1 mRNA, set 1": 0.373}
{"gene knocked down": "BCAT1", "BNIP3L mRNA, set 1": 0.118, "NDRG1 mRNA, set 1": 0.117}
{"gene knocked down": "MTMR12", "BNIP3L mRNA, set 1": 0.222, "NDRG1 mRNA, set 1": 0.422}
{"gene knocked down": "NTNG2", "BNIP3L mRNA, set 1": 0.109, "NDRG1 mRNA, set 1": 0.0815}
{"gene knocked down": "KAT6B", "BNIP3L mRNA, set 1": 0.112, "NDRG1 mRNA, set 1": 0.252}
{"gene knocked down": "TMEM138", "BNIP3L mRNA, set 1": 0.141, "NDRG1 mRNA, set 1": 0.0973}
{"gene knocked down": "SLC41A3", "BNIP3L mRNA, set 1": 0.144, "NDRG1 mRNA, set 1": 0.572}
{"gene knocked down": "RO60", "BNIP3L mRNA, set 1": 0.0867, "NDRG1 mRNA, set 1": 0.268}
{"gene knocked down": "FLJ10246 (retired record)", "BNIP3L mRNA, set 1": 0.169, "NDRG1 mRNA, set 1": 0.177}
{"gene knocked down": "CUX2", "BNIP3L mRNA, set 1": 0.0324, "NDRG1 mRNA, set 1": 0.275}
{"gene knocked down": "IL21", "BNIP3L mRNA, set 1": 0.123, "NDRG1 mRNA, set 1": 0.0769}
{"gene knocked down": "MREG", "BNIP3L mRNA, set 1": 0.0952, "NDRG1 mRNA, set 1": 0.455}
{"gene knocked down": "RIMBP2", "BNIP3L mRNA, set 1": 0.115, "NDRG1 mRNA, set 1": 0.358}
{"gene knocked down": "DGKI", "BNIP3L mRNA, set 1": 0.19, "NDRG1 mRNA, set 1": 0.499}

3 entries from above, sorted by “NDRG1 mRNA, set 1”, highest first.
{"gene knocked down": "MTMR12", "BNIP3L mRNA, set 1": 0.222, "NDRG1 mRNA, set 1": 0.422}
{"gene knocked down": "BCAT1", "BNIP3L mRNA, set 1": 0.118, "NDRG1 mRNA, set 1": 0.117}
{"gene knocked down": "NTNG2", "BNIP3L mRNA, set 1": 0.109, "NDRG1 mRNA, set 1": 0.0815}
